Screen size: about 300,000 compounds; about 5,400 (1.8%) were called active. The inconclusive results got no clear call from the source; some entries with a clear call stand among them for comparison. Calls come from the whole dose curve; tested in HEK293 cells. Potencies beside an inconclusive call are fits to weak or partial responses and may not hold up.
Assay: qHTS for inhibitors of binding or entry into cells for Marburg Virus
Conditions: Marburg virus pseudotyped entry inhibition, cell reporter; series mostly up to 37.8 µM
Potency is the fitted concentration of half-maximal effect.

Row | Compound | Potency
1 | Cn1c(CNC(=O)c2ccco2)nnc1SCC(=O)Nc1ccc(Cl)cc1 | inconclusive: 35.5 µM [inhibitor, single point]
2 | O=C(NCC(c1ccco1)N1CCc2ccccc21)c1cccc(F)c1 (stereo unspecified) | inconclusive: 31.6 µM [inhibitor, single point]
3 | CCc1ccc(OCC(=O)O/N=C(\N)c2ccncc2)cc1 | inconclusive: 35.5 µM [activator, single point]
4 | CCOC(=O)C(=CNc1cccnc1Oc1ccc(C)c2c1CCC2)C(=O)OCC | inactive
5 | CCOc1ccc(-c2n[nH]c(=S)o2)cc1 | inconclusive: 1.12 µM [activator, full curve, poor fit]
6 | COc1ccc(C)cc1NC(=O)CSc1nc2ccccc2nc1N1CCOCC1 | inconclusive: 10 µM [inhibitor, single point]
7 | COCCN(C(=O)CCl)C(C(=O)NC1CCCCC1)c1ccccc1C (stereo unspecified) | active: 8.91 µM
8 | Cc1ccc(C)c(C(=O)CSc2n[nH]c(C(C)C)n2)c1 | inactive
9 | O=C(N/N=C/c1cc(Br)ccc1O)C(c1ccncc1)N1CCOCC1 (stereo unspecified) | inconclusive: 0.355 µM [inhibitor, full curve, poor fit]
10 | CN=C1NN=C(c2cc(C)n(-c3ccc(Cl)cc3)c2C)CS1 | inconclusive: 35.5 µM [inhibitor, single point]
11 | CCc1ccc(CN2CCC(n3nccc3NC(=O)c3ccc4c(c3)OCO4)CC2)cc1 | inactive
12 | Cc1ccc(CN2CCC(CNC(=O)Nc3cccc(Cl)c3C)C2)cc1 (stereo unspecified) | inconclusive: 2.24 µM [inhibitor, partial curve, poor fit]
13 | O=C(Nc1nc2ccccc2n1CCN1CCOCC1)c1ccc(COc2ccccc2Br)o1 | inconclusive: 5.01 µM [inhibitor, partial curve]
14 | CCN(CC)C(=O)C12CC3CC(CC(Cl)(C3)C1)C2 | inconclusive: 35.5 µM [activator, single point]
15 | CCOc1cccc(C(=O)Nc2ccc3ccccc3c2)c1 | inconclusive: 7.08 µM [inhibitor, partial curve, poor fit]
16 | Cc1c(C(=O)Nc2ccc(F)cc2)oc2ccc(S(=O)(=O)N3CC(C)CC(C)C3)cc12 (stereo unspecified) | inconclusive: 9.2 µM [inhibitor, partial curve]
17 | CN(C)CCN(C(=O)c1ccc(S(=O)(=O)N(C)CC2CCCO2)cc1)c1nc2cc3c(cc2s1)OCO3 (stereo unspecified) | inconclusive: 14.1 µM [activator, single point]
18 | O=S(=O)(c1cccc(-c2csc(-c3cccnc3)n2)c1)N1CCCCC1 | inactive
19 | C/C(=C\C(=O)c1ccc(Br)cc1)NCc1ccccc1 | inactive
20 | COc1ccc(C(C(=O)NC2CCCCC2)N(C(=O)CCCC(=O)Nc2ccccn2)c2ccc3c(c2)OCCO3)cc1 (stereo unspecified) | inactive
21 | COc1cccc(-c2nc(NC(C)C)c3ccccc3n2)c1O | inactive
22 | COc1ccc(NS(=O)(=O)c2cccc(C(=O)NNC(=O)CNC(=O)c3ccccc3Cl)c2)cc1 | inconclusive: 0.112 µM [inhibitor, full curve, poor fit]
23 | Cc1cc(C)nc(NC(=O)/C=C/c2cccs2)c1 | inconclusive: 32.6 µM [inhibitor, single point]
24 | CCCCCCCC1CC(CSC(=N)N)OC1=O (stereo unspecified) | inconclusive: 12.6 µM [inhibitor, partial curve]

Row | Compound | Potency
25 | O=C(O)c1cc(S(=O)(=O)NCC2CCCO2)ccc1Cl (stereo unspecified) | inconclusive: 0.651 µM [activator, full curve, poor fit]
26 | O=[N+]([O-])c1ccc(C(O)CN2CCN(C/C=C/c3ccccc3)CC2)cc1 (stereo unspecified) | inconclusive: 35.5 µM [inhibitor, single point]
27 | COc1cc(/C=C/C(=O)OCC(=O)c2c(N)n(C)c(=O)n(C)c2=O)ccc1O | inactive
28 | N#CCC(=O)N/N=C/c1cc(-c2ccccc2)n(-c2ccc(Cl)cc2)c1-c1ccccc1 | inconclusive: 22.4 µM [inhibitor, single point]
29 | O=C1C(Nc2ccccc2)=CC(c2ccc(Br)cc2)N1c1ccccc1 (stereo unspecified) | inactive
30 | NC(=O)c1ccc(-n2nnnc2SCC(=O)Nc2ccc(F)cc2)cc1 | inconclusive: 22.4 µM [activator, single point]
31 | CC(/C=N/NC(=O)c1ccc(Br)cc1)=C\c1ccccc1 | inconclusive: 2.06 µM [inhibitor, partial curve, poor fit]
32 | CC(=O)c1ccc(Nc2nc(=O)c3cccnc3s2)cc1 | inconclusive: 35.5 µM [inhibitor, single point]
33 | CCc1ccc(C2C(C#N)=C(N)C(C#N)(C#N)C3=CCC(C(C)(C)C)CC32)cc1 (stereo unspecified) | inconclusive: 18.3 µM [inhibitor, single point]
34 | Cc1ccc(OCC(=O)Nc2ccc(S(=O)(=O)Nc3ccccn3)cc2)cc1C | inconclusive: 0.562 µM [activator, full curve, poor fit]
35 | CCCCCNS(=O)(=O)c1cc(C)ccc1OC | inactive
36 | O=C(CN(C(=O)CSc1nnc(COc2ccccc2)o1)c1ccc(F)cc1)NC1CCCCC1 | inactive
37 | Clc1cccc(Cl)c1CSc1nnc(/C=C/c2ccccc2)o1 | inactive
38 | CCC(=O)NC(=S)Nc1cccc(NC(=O)c2ccccc2C)c1 | inactive
39 | Cc1cc(C(=O)C(C)OC(=O)c2ccc(NC(=O)CC#N)cc2)c(C)n1-c1ccc(OC(F)F)cc1 (stereo unspecified) | inconclusive: 15.8 µM [inhibitor, partial curve, poor fit]
40 | CCn1c(=O)n(CCc2ccccc2)c(=O)c2c3c(sc21)CCCC3 | inconclusive: 10.3 µM [inhibitor, partial curve, poor fit]
41 | C=CCn1c(C)cc(C(=O)CSc2ccc(NC(C)=O)cc2)c1C | inactive
42 | COCC(C)N1CCC(Oc2ccc(C(=O)N3CCCC3)cc2)CC1 (stereo unspecified) | inactive
43 | Cc1ccc(CNCc2ccccc2)s1 | inactive
44 | CC(=O)N1CCCC(C(=O)c2ccc(Oc3ccccc3)cc2)C1 (stereo unspecified) | inconclusive: 35.5 µM [inhibitor, single point]
45 | O=C(COc1cccc2cccnc12)Nc1ccccc1 | inconclusive: 5.62 µM [inhibitor, single point]
46 | O=C(CCl)Nc1cc2[nH]c(=O)[nH]c2cc1Br | inconclusive: 35.5 µM [inhibitor, single point]
47 | O=C(CCc1nc2ccccc2c(=O)[nH]1)N1CCN(S(=O)(=O)c2cccc(F)c2)CC1 | inactive
48 | NC1=NC2(CCCC2)N=C(Nc2ccccc2)N1 | inactive

By substructure: the compounds so far containing a cyano group
Row | Compound | Potency
28 | N#CCC(=O)N/N=C/c1cc(-c2ccccc2)n(-c2ccc(Cl)cc2)c1-c1ccccc1 | inconclusive: 22.4 µM [inhibitor, single point]
33 | CCc1ccc(C2C(C#N)=C(N)C(C#N)(C#N)C3=CCC(C(C)(C)C)CC32)cc1 (stereo unspecified) | inconclusive: 18.3 µM [inhibitor, single point]
39 | Cc1cc(C(=O)C(C)OC(=O)c2ccc(NC(=O)CC#N)cc2)c(C)n1-c1ccc(OC(F)F)cc1 (stereo unspecified) | inconclusive: 15.8 µM [inhibitor, partial curve, poor fit]

(further entries)

Row | Compound | Potency
49 | C/C(=N\Nc1ccccc1)c1c(O)n(-c2ccccc2)c(=O)[nH]c1=O | inconclusive: 2.82 µM [inhibitor, full curve, poor fit]
50 | CCOC(=O)N1CCN(CC(=O)Nc2nc3ccccc3s2)CC1 | inactive
51 | Cc1ccc(S(=O)(=O)N2CCC(=O)N(C(COCc3ccc(C(F)(F)F)cc3)Cc3ccccc3)CC2)cc1 (stereo unspecified) | inconclusive: 6.51 µM [inhibitor, single point]
52 | N#Cc1nc(-c2cccs2)oc1NCC1CCCO1 (stereo unspecified) | inactive
53 | O=C(NCCN1C(=O)S/C(=C\c2ccc(Cl)c(Cl)c2)C1=O)C1COc2ccccc2O1 (stereo unspecified) | inconclusive: 22.4 µM [inhibitor, single point]
54 | CC(=O)Nc1ccc(NC(=S)NC(=O)C2CCCC2)cc1 | inactive
55 | CCN(CC)c1ccc(CN2CCCCCC2)cc1 | inconclusive: 12.6 µM [inhibitor, single point]
56 | CCN(c1ccccc1)S(=O)(=O)c1cccc(C(=O)NCC(c2cccs2)N2CCOCC2)c1 (stereo unspecified) | inactive
57 | COc1ccc(N/N=C(\C=N\O)C(=O)c2ccc(OC)cc2)cc1 | inconclusive: 0.355 µM [inhibitor, full curve, poor fit]
58 | CN1CCN(c2ccc(NC(=O)c3cccs3)cc2)CC1 | inconclusive: 35.5 µM [inhibitor, single point]
59 | CCN(CC)c1ccc2cc(-c3nc(-c4ccc(OC)cc4)cs3)c(=O)oc2c1 | inconclusive: 1.12 µM [inhibitor, single point]
60 | CCOC(=O)c1c(C)[nH]c(C)c1C(=O)CSc1nnc(-c2ccc(OC(F)F)cc2)o1 | inconclusive: 22.4 µM [inhibitor, single point]
61 | Cc1ccc2[nH]c(CCN(C)C)c(CC#N)c2c1 | inconclusive: 29.1 µM [inhibitor, single point]
62 | Cn1c(N)c(C(=O)COC(=O)c2cc(C(F)(F)F)nc3ccccc23)c(=O)n(C)c1=O | inactive
63 | O=C(COc1cc(Cl)c(Cl)cc1Cl)N1CCN(c2ccccn2)CC1 | inconclusive: 1.26 µM [inhibitor, partial curve, poor fit]
64 | COc1cccc(-c2nc(CS(=O)CC(=O)N3CCC4(CC3)OCCO4)c(C)o2)c1 (stereo unspecified) | inactive
65 | O=C(N/N=C/c1cccs1)c1cnccn1 | inconclusive: 0.112 µM [activator, full curve, poor fit]
66 | CCOC(=O)c1c(NC(=O)CSc2ncccn2)sc2c1CCN(Cc1ccccc1)C2 | active: 16.4 µM
67 | CCOc1ccc(-c2cc(C(=O)NN=C3CCN(C)CC3)[nH]n2)cc1 | inconclusive: 7.08 µM [inhibitor, full curve, poor fit]
68 | CC(=O)N1CCCc2cc(S(=O)(=O)N3CCC(C)CC3)ccc21 | inconclusive: 20 µM [activator, partial curve, poor fit]
69 | COc1ccc(-c2csc(NC(=O)[C@H](C)N3C(=O)C4CC=CCC4C3=O)n2)cc1OC (stereo partly specified) | inconclusive: 35.5 µM [inhibitor, single point]
70 | CCOc1ncccc1C(=O)NCc1ccc(C)cc1 | inactive
71 | Cc1ccc(NC(=O)COc2cccc(Oc3ccccc3)c2)cc1S(=O)(=O)N1CCOCC1 | inconclusive: 11.2 µM [inhibitor, single point]
